Literature values, collected in patent US20230382944A1, “NOVEL COCRYSTALS OF DEXAMETHASONE” (Versitech Limited, priority 2022, published 2023).

Details: water, 25° C.; cited from earlier work

## C[C@@H]1C[C@H]2[C@@H]3CCC4=CC(=O)C=C[C@]4(C)[C@@]3(F)[C@@H](O)C[C@]2(C)[C@@]1(O)C(=O)CO [DEX, 9-fluoro-11β,17,21-trihydroxy-16α-methylpregna-1,4-diene-3,20-dione, reference compound]
  aqueous solubility: around 90 mg/L
